Measurements reported in PMC6030205.
These are yes or no findings as the source states them, for the method shown. Binding seen in cells or lysates may run through a third protein. A result given as binding can be weak or reduced; the word gives no strength.

By UniProt entry, the sequences of proteins in these tests, tags left out. Where a name states a change or a piece, a line headed by the entry shows the natural chain unless it says otherwise.
UniProt Q9C9X5: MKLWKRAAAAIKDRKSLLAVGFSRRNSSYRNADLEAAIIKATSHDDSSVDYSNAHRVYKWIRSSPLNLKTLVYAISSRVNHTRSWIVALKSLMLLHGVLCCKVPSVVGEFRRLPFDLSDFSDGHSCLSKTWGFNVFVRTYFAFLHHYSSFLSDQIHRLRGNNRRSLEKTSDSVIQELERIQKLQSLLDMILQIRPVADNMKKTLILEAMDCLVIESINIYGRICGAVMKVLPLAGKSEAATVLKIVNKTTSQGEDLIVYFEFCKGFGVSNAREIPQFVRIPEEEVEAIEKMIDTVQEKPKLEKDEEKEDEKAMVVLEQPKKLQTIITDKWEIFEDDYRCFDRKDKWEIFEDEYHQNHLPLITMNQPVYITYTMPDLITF

Target: EAP1-RFP (Arabidopsis) (UniProt Q9C9X5)
Test: co-IP; total protein of Arabidopsis pollen tubes in NEB buffer (20 mM HEPES pH 7.5, 40 mM KCl, 1 mM EDTA, 1% Triton X-100); GFP-trap or RFP-trap agarose beads, 3 h at 4 C; endogenous REN4 detected by anti-REN4 immunoblot

- binding: binds
B1: REN4 (ROP1 enhancer 4), endogenous (protein, UniProt O48716 1-465)
chain: MFTEADSIPRAKYANMMHSDPNLSSTMTQQTEEEYGIRNSSASAVGTGMYDRMSCEGSPMMMSPWNQATPFTQTQWSTVEENLPQNGLIGSLVREEGHIYSLAATKDLLYTGSDSKNIRVWKNLKEFSAFKCNSGLVKAIVISGEKIFTGHQDGKIRVWKVSPKNQSLHKRSGTLPTLKDIFKASLKPRNYVEVKKHRTALWIKHADAVSCLSLNDEQGLLYSASWDRTIKVWRIADSKCLESIPAHDDAVNSVVSTTEAIVFSGSADGTVKAWKRDQQGKYTKHTLMQTLTKQESAVTALAVSKNGAAVYFGSSDGLVNFWEREKQLNYGGILKGHKLAVLCLEVAGSLVFSGSADKTICVWKRDGNIHTCLSVLTGHTGPVKCLAVEADREASERRDKKWIVYSGSLDKSVKVWGVSESFIDMNQMSMMQQQQQQHVISHSEPFMSDGSFSSSAGGASSHRRH
